Here are results for seven molecules from patent US20040023887A1.

The chains behind the UniProt entries cited, without tags or fusion partners. Where a name states a change or a piece, a line headed by the entry shows the natural chain unless it says otherwise. A line that says so, or that is headed by a name, gives the form on record, which may keep a tag or linker. Residues count along the entry.
soluble human insulin receptor-immunoglobulin heavy chain chimera (P06213, residues 28-956): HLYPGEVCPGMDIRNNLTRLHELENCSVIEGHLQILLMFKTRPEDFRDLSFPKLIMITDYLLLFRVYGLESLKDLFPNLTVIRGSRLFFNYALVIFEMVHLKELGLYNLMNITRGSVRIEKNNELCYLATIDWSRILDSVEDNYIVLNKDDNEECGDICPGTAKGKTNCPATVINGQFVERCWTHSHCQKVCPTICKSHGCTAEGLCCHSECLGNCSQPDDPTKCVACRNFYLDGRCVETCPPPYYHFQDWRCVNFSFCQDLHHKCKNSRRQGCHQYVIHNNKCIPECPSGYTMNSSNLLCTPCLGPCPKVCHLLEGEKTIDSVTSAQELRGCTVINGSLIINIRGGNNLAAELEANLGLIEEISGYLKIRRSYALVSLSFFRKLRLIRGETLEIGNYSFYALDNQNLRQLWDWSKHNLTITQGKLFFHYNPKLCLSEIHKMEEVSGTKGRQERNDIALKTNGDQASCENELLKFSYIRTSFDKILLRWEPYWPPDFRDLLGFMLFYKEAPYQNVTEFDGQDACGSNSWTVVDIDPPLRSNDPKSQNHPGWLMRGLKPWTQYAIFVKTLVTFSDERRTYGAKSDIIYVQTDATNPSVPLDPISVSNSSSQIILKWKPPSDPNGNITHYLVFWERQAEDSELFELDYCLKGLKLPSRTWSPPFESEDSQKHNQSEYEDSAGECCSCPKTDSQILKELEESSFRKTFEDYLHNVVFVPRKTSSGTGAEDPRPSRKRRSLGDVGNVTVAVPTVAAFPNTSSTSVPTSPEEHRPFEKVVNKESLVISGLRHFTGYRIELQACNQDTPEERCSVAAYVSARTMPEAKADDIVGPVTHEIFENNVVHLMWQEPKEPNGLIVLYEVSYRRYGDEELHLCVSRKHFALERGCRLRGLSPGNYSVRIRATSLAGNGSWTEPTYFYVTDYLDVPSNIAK
human insulin receptor (HIR), purified from transfected cells after solubilization with Triton X-100 (P06213, form named): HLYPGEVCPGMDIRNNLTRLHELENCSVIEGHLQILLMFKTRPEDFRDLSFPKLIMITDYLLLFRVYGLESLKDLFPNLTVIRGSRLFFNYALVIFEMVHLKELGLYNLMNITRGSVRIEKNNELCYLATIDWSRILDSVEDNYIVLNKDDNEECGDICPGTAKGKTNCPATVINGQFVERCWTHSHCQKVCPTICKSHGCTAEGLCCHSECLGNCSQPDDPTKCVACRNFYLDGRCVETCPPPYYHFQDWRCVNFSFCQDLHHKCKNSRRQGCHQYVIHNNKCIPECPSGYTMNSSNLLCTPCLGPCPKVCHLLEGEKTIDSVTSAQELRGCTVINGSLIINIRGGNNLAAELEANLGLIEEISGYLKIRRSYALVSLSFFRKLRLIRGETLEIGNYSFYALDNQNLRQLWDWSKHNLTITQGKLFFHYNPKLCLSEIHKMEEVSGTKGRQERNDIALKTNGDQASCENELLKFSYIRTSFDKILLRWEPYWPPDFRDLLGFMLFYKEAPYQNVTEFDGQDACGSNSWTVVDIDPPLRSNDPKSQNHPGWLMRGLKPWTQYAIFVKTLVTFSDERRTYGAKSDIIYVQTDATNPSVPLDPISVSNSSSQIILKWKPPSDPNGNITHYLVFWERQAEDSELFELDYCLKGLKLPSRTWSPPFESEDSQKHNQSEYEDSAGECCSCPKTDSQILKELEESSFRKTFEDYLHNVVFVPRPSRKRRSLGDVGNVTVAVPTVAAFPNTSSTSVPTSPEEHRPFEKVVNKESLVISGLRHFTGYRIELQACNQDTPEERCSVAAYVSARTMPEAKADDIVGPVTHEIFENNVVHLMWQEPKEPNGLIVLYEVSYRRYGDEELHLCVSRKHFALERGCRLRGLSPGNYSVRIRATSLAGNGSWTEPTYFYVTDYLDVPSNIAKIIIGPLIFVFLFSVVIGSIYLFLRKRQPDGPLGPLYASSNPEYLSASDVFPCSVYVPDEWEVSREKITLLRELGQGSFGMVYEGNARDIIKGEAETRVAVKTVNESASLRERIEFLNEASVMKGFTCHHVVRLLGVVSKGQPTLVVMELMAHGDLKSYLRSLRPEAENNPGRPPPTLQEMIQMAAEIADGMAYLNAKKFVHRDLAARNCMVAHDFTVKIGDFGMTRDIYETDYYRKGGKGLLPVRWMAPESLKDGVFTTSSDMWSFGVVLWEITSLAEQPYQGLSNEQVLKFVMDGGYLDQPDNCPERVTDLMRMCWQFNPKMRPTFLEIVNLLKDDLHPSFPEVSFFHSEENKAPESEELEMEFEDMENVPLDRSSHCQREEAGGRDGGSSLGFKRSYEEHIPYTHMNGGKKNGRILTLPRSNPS

The target of experiment [1] is human insulin receptor (HIR), purified from transfected cells after solubilization with Triton X-100 (human) (UniProt P06213). The experiment can be described thus: 125I-insulin competition.
In experiment [2] the target is soluble human insulin receptor-immunoglobulin heavy chain chimera (human) (UniProt P06213). The experiment can be described thus: BIAcore competition, MBP fusions. On the technique in general: In SPR one partner is held on a chip, and binding of the other changes the refractive index at the surface.
Experiment [3] shares this target. Briefly: FP competition with FITC-RP9 on sIR-Fc.

No constants are given. Whether binding was seen depends on the method and setting. Some binding calls cover weakened binding; strength is not graded here. For some of these results: Tags and fused reporters may be left off the sequences shown.

B1: 538 (RP9-12aa-D8) (peptide)
peptide: MADYKDDDDKGSLDESFYDWFERQLGKKGGSGGSGGSGGSWLDQEWAWVQCEVYGRGCPSAAAGAPVPYPDPLEPRPG
With B1, the binding entry in experiment [1] was “binds”.

B2: H2C-3aa-H2C maltose binding protein fusion (protein)
chain: NNNNLGIEGRISEFIEGRAQPAMAFHENFYDWFVRQVSGGSFHENFYDWFVRQVSAAAGAPVPYPDPLEPRAA
For B2, the binding result in experiment [2] is given as “binds”.

B3: 540 (peptide)
peptide: MADYKDDDDKWLDQEWAWVQCEVYGRGCPSAAAGAPVPYPDPLEPRPG
In the case of B3, the binding entry in experiment [1] is “binds”.

B4: H2C-9aa-H2C maltose binding protein fusion (protein)
chain: NNNNLGIEGRISEFIEGRAQPAMAFHENFYDWFVRQVSGGSGGSGGSFHENFYDWFVRQVSAAAGAPVPYPDPLEPRAA
In the case of B4, the binding result in experiment [2] is recorded as “binds”.

B5: 537 (RP9-6aa-D8) (peptide)
peptide: MADYKDDDDKGSLDESFYDWFERQLGKKGGSGGSWLDQEWAWVQCEVYGRGCPSAAAGAPVPYPDPLEPRPG
Turning to B5, in experiment [1], the binding result is reported as “binds”.

B6: RP9 minus terminal lysines (…) (peptide)
peptide: GSLDESFYDWFERQLG
For B6, the binding entry in experiment [3] was “binds”.

B7: 521 (RP9-6aa-RP9) (peptide)
peptide: MADYKDDDDKGSLDESFYDWFERQLGKKGGSGGSGSLDESFYDWFERQLGKKAAAGAPVPYPDPLEPRPG
For the molecule B7, in experiment [1], the binding entry is “binds”.
